Reference: the supplement of paper PMC8728848
The other results are listed elsewhere or left out.

Legend:
Experiment in all cases: glycan array binding signal (z-score within array); higher = stronger binding
Conditions in all cases: glycan notation: IUPAC condensed, linker removed
[1] = target: Fuc(a1-2)[GalNAc(a1-3)]Gal(b1-3)GlcNAc(b1-3)GalNAc
How it was run: (§1)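 Negative Z-scores can be read as non-binding. The Z-score is calculated within each array and then averaged across arrays of one protein sequence at different concentrations or buffers and across linkers. Arrays, 3228 in all, were curated from the Consortium for Functional Glycomics database and kept only where the protein sequence was available.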

[2] = target: Fuc(a1-2)[GalNAc(a1-3)]Gal(b1-3)GlcNAc(b1-6)GalNAc
How it was run: as §1

[3] = target: Fuc(a1-2)[GalNAc(a1-3)]Gal(b1-4)Glc
How it was run: as §1

[4] = target: Fuc(a1-2)[GalNAc(a1-3)]Gal(b1-4)GlcNAc
How it was run: as §1

[5] = target: Fuc(a1-2)[GalNAc(a1-3)]Gal(b1-4)GlcNAc(b1-2)Man
How it was run: as §1

[6] = target: Fuc(a1-2)[GalNAc(a1-3)]Gal(b1-4)GlcNAc(b1-2)Man(a1-3)[Fuc(a1-2)[GalNAc(a1-3)]Gal(b1-4)GlcNAc(b1-2)Man(a1-6)]Man(b1-4)GlcNAc(b1-4)GlcNAc
How it was run: as §1

[7] = target: Fuc(a1-2)[GalNAc(a1-3)]Gal(b1-4)GlcNAc(b1-2)Man(a1-3)[Fuc(a1-2)[GalNAc(a1-3)]Gal(b1-4)GlcNAc(b1-2)Man(a1-6)]Man(b1-4)GlcNAc(b1-4)[Fuc(a1-6)]GlcNAc
How it was run: as §1

[8] = target: Fuc(a1-2)[GalNAc(a1-3)]Gal(b1-4)GlcNAc(b1-3)Gal(b1-4)GlcNAc
How it was run: as §1

[9] = target: Fuc(a1-2)[GalNAc(a1-3)]Gal(b1-4)GlcNAc(b1-3)Gal(b1-4)GlcNAc(b1-3)Gal(b1-4)GlcNAc
How it was run: as §1

[10] = target: Fuc(a1-2)[GalNAc(a1-3)]Gal(b1-4)GlcNAc(b1-3)GalNAc
How it was run: as §1

[11] = target: Fuc(a1-2)[GalNAc(a1-3)]Gal(b1-4)GlcNAc(b1-3)[Fuc(a1-2)[GalNAc(a1-3)]Gal(b1-4)GlcNAc(b1-6)]GalNAc
How it was run: as §1

[12] = target: Fuc(a1-2)[GalNAc(a1-3)]Gal(b1-4)GlcNAc(b1-6)GalNAc
How it was run: as §1

[13] = target: Fuc(a1-2)[GalNAc(a1-3)]Gal(b1-4)[Fuc(a1-3)]GlcNAc
How it was run: as §1

[14] = target: Fuc(a1-2)[GalNAc(a1-3)]Gal(b1-4)[Fuc(a1-3)]GlcNAc(b1-3)GalNAc
How it was run: as §1

[15] = target: Fuc(a1-2)[GalNAc(a1-4)]Gal(b1-4)GlcNAc
How it was run: as §1

[16] = target: Fuc(a1-2)[GalNAc(b1-3)]Gal
How it was run: as §1

Fuc(a1-3)GlcNAc = target: Fuc(a1-3)GlcNAc
How it was run: as §1

[17] = target: Fuc(a1-3)[Gal(b1-4)]Glc6S
How it was run: as §1

[18] = target: Fuc(a1-3)[Gal(b1-4)]GlcNAc
How it was run: as §1

[19] = target: Fuc(a1-3)[Gal(b1-4)]GlcNAc(b1-2)Man
How it was run: as §1

[20] = target: Fuc(a1-3)[Gal(b1-4)]GlcNAc(b1-2)Man(a1-3)[Fuc(a1-3)[Gal(b1-4)]GlcNAc(b1-2)Man(a1-6)]Man(b1-4)GlcNAc(b1-4)GlcNAc
How it was run: as §1

[21] = target: Fuc(a1-3)[Gal(b1-4)]GlcNAc(b1-2)Man(a1-3)[Fuc(a1-3)[Gal(b1-4)]GlcNAc(b1-2)Man(a1-6)]Man(b1-4)GlcNAc(b1-4)[Fuc(a1-6)]GlcNAc
How it was run: as §1

[22] = target: Fuc(a1-3)[Gal(b1-4)]GlcNAc(b1-3)Gal(b1-3)[Fuc(a1-4)]GlcNAc
How it was run: as §1

[23] = target: Fuc(a1-3)[Gal(b1-4)]GlcNAc(b1-3)Gal(b1-4)[Fuc(a1-3)]GlcNAc
How it was run: as §1

[24] = target: Fuc(a1-3)[Gal(b1-4)]GlcNAc(b1-3)Gal(b1-4)[Fuc(a1-3)]GlcNAc(b1-3)Gal(b1-4)[Fuc(a1-3)]GlcNAc
How it was run: as §1

[25] = target: Fuc(a1-3)[Gal(b1-4)]GlcNAc(b1-3)GalNAc
How it was run: as §1

[26] = target: Fuc(a1-3)[Gal(b1-4)]GlcNAc(b1-6)GalNAc
How it was run: as §1

[27] = target: Fuc(a1-3)[Gal(b1-4)]GlcNAc(b1-6)[Gal(b1-3)GlcNAc(b1-3)]Gal(b1-4)Glc
How it was run: as §1

[28] = target: Fuc(a1-3)[Gal(b1-4)]GlcNAc6S
How it was run: as §1

[29] = target: Fuc(a1-3)[Gal3S(b1-4)]Glc
How it was run: as §1

[30] = target: Fuc(a1-3)[Gal3S(b1-4)]GlcNAc
How it was run: as §1

[31] = target: Fuc(a1-3)[Gal3S(b1-4)]GlcNAc6S
How it was run: as §1

[32] = target: Fuc(a1-3)[GalNAc(b1-4)]GlcNAc
How it was run: as §1

[33] = target: Fuc(a1-3)[GalNAc(b1-4)]GlcNAc6S
How it was run: as §1

Fuc(a1-4)GlcNAc = target: Fuc(a1-4)GlcNAc
How it was run: as §1

Fuc(b1-3)GlcNAc = target: Fuc(b1-3)GlcNAc
How it was run: as §1

Gal(a1-2)Gal = target: Gal(a1-2)Gal
How it was run: as §1

B1: SabA (Helicobacter pylori) (protein)
chain: MGSSHHHHHHSSGLVPRGSHMENLYFQGEDNGFFVSAGYQIGEAVQMVKNTGELKNLNEKYEQLSQYLNQVASLKQSIQNANNIELVNSSLNYLKSFTNNNYNSTTQSPIFNAVQAVITSVLGFWSLYAGNYFTFFVGKKVGDSGQPASVQGNPPFKTIIENCSGIENCAMDQTTYDKMKKLAEDLQAAQTNSATKGNNLCALSGCAATDSTSNPPNSTVSNALNLAQQLMDLIANTKTAMMWKNIVISGVSNTSGAITSTNYPTQYAVFNNIKAMIPILQQAVTLSQSNHTLSASLQAQATGSQTNPKFAKDIYTFAQNQKQVISYAQDIFNLFNSIPAEQYKYLEKAYLKIPNAGSTPTNPYRQVVNLNQEVQTIKNNVSYYGNRVDAALSVARDVYNLKSNQAEIVTAYNDAKTLSEEISKLPHNQVNTKDIVTLPYDKNAPAAGQSNYQINPEQQSNLNQALAAMSNNPFKKVGMISSQNNNGA
- glycan array binding signal (z-score) [1]: 0.802
- glycan array binding signal (z-score) [2]: -0.962
- glycan array binding signal (z-score) [3]: -0.596
- glycan array binding signal (z-score) [4]: -0.145
- glycan array binding signal (z-score) [5]: -0.319
- glycan array binding signal (z-score) [6]: -0.361
- glycan array binding signal (z-score) [7]: 1.65
- glycan array binding signal (z-score) [8]: -0.455
- glycan array binding signal (z-score) [9]: -0.285
- glycan array binding signal (z-score) [10]: -0.419
- glycan array binding signal (z-score) [11]: -0.028
- glycan array binding signal (z-score) [12]: -0.962
- glycan array binding signal (z-score) [13]: 0.137
- glycan array binding signal (z-score) [14]: 0.302
- glycan array binding signal (z-score) [15]: -0.374
- glycan array binding signal (z-score) [16]: -0.571
- glycan array binding signal (z-score) (Fuc(a1-3)GlcNAc): -0.659
- glycan array binding signal (z-score) [17]: 0.92
- glycan array binding signal (z-score) [18]: 0.428
- glycan array binding signal (z-score) [19]: -0.421
- glycan array binding signal (z-score) [20]: -0.661
- glycan array binding signal (z-score) [21]: -0.218
- glycan array binding signal (z-score) [22]: -0.032
- glycan array binding signal (z-score) [23]: 1.26
- glycan array binding signal (z-score) [24]: -0.77
- glycan array binding signal (z-score) [25]: 0.654
- glycan array binding signal (z-score) [26]: 1.95
- glycan array binding signal (z-score) [27]: -0.702
- glycan array binding signal (z-score) [28]: 0.599
- glycan array binding signal (z-score) [29]: -0.249
- glycan array binding signal (z-score) [30]: -0.614
- glycan array binding signal (z-score) [31]: -0.083
- glycan array binding signal (z-score) [32]: 1.14
- glycan array binding signal (z-score) [33]: 0.226
- glycan array binding signal (z-score) (Fuc(a1-4)GlcNAc): 2.89
- glycan array binding signal (z-score) (Fuc(b1-3)GlcNAc): 0.437
- glycan array binding signal (z-score) (Gal(a1-2)Gal): -0.173
